Assay results published in PubChem BioAssay AID194 (DTP/NCI, 2004).
The list is a part of this screen's results and no random one: it gathers tests that were run many times, whatever their T/C, doses with no T/C, and many T/C values between a quarter and a half above the control. Other doses and runs of a compound stand elsewhere. T/C is the treated group as % of the vehicle group. Some entries give survivors of the animals treated and no T/C: the source files T/C as zero there, which appears to mark a toxic dose or a test without result, not a measured value. Some survivor counts are full or nearly so, which does not show that the dose was tolerated: the source hardly ever lists a survival T/C far under the control, and the zero likely stands for such cases as well. Survivors were counted at the toxicity check, usually on the fifth day, unless a day is given; later deaths do not show. Schedules are NCI's codes, read here as Q, the interval in days (D) or hours (H), X, the number of doses. Brackets with × say how often a value occurs here. Some entries were tested several times; their values stand side by side, smallest first. Where survival is the endpoint, this PubChem deposit counts one and a half times the control or more as active, and values a quarter to a half above the control carry no call in these data; other NCI protocols may use other cut-offs. Some T/C values carry the count of animals alive at the toxicity check (mostly the fifth day); without a count, all were alive then.

Test system: BDF1 mice, B16 melanoma s.c., survival/tumor T/C
Assay: NCI In Vivo Anticancer Drug Screen. Data for tumor model B16 Melanoma (subcutaneous) in B6D2F1 (BDF1) mice
Experimental: The antitumor activity of compounds was measured in mice bearing transplantable tumors. Survival or tumor size were measured and the results are expressed as the measurement made in the treated group (T) divided by the measurement made in the vehicle treated control group (C). The tumor model used in this assay is B16 Melanoma (subcutaneous) in B6D2F1 (BDF1) mice

[1] = T/C endpoint: median survival time, dose: 32.0 mg/kg/injection, schedule: Q01DX009 (ip), vehicle: saline, higher T/C = longer survival
[2] = T/C endpoint: median survival time, dose: 16.0 mg/kg/injection, schedule: Q01DX009 (ip), vehicle: saline, higher T/C = longer survival

Cc1c(N)nc([C@H](CC(N)=O)NC[C@H](N)C(N)=O)nc1C(=O)N[C@H](C(=O)N[C@H](C)[C@@H](O)[C@H](C)C(=O)N[C@H](C(=O)NCCc1nc(-c2nc(C(=O)NCCC[S+](C)C)cs2)cs1)[C@@H](C)O)C(OC1OC(CO)C(O)C(O)C1OC1OC(CO)C(O)C(OC(N)=O)C1O)c1cnc[nH]1 (some centres undefined)
T/C (T/C endpoint: median survival time, dose: 0.5 mg/kg/injection, schedule: Q01DX009 (ip), vehicle: saline, higher T/C = longer survival): 127 % of control | T/C (T/C endpoint: median survival time, dose: 2.0 mg/kg/injection, schedule: Q01DX009 (ip), vehicle: saline, higher T/C = longer survival): 126, 133, 145 % of control | T/C (T/C endpoint: median survival time, dose: 2.0 mg/kg/injection, schedule: Q01DX009 (ip), vehicle: water, higher T/C = longer survival): 139 % of control | T/C (T/C endpoint: median survival time, dose: 2.0 mg/kg/injection, schedule: Q01DX010 (ip), vehicle: water, higher T/C = longer survival): 139 % of control | T/C (T/C endpoint: median survival time, dose: 3.0 mg/kg/injection, schedule: Q01DX009 (ip), vehicle: saline, higher T/C = longer survival): 127 % of control | T/C (T/C endpoint: median survival time, dose: 4.0 mg/kg/injection, schedule: Q01DX009 (ip), vehicle: saline, evaluated on day 5, higher T/C = longer survival): 148 and 159 % of control | T/C (T/C endpoint: median survival time, dose: 4.0 mg/kg/injection, schedule: Q01DX009 (ip), vehicle: saline, evaluated on day 60, higher T/C = longer survival): 126, 130, 137, 164 % of control | T/C (T/C endpoint: median survival time, dose: 4.0 mg/kg/injection, schedule: Q01DX009 (ip), vehicle: water, higher T/C = longer survival): 144 % of control | T/C (T/C endpoint: median survival time, dose: 4.0 mg/kg/injection, schedule: Q01DX010 (ip), vehicle: water, higher T/C = longer survival): 141 % of control | T/C (T/C endpoint: median survival time, dose: 6.0 mg/kg/injection, schedule: Q01DX009 (ip), vehicle: saline, higher T/C = longer survival): 140 % of control | T/C (T/C endpoint: median survival time, dose: 8.0 mg/kg/injection, schedule: Q01DX009 (ip), vehicle: saline, evaluated on day 5, higher T/C = longer survival): 140 and 161 % of control | T/C (T/C endpoint: median survival time, dose: 8.0 mg/kg/injection, schedule: Q01DX009 (ip), vehicle: saline, evaluated on day 60, higher T/C = longer survival): 130 [9 of 10 alive], 160, 164, 169 % of control | T/C (T/C endpoint: median survival time, dose: 8.0 mg/kg/injection, schedule: Q01DX009 (ip), vehicle: water, higher T/C = longer survival): 145 % of control | T/C (T/C endpoint: median survival time, dose: 8.0 mg/kg/injection, schedule: Q01DX010 (ip), vehicle: water, higher T/C = longer survival): 139 % of control | T/C (T/C endpoint: median survival time, dose: 12.0 mg/kg/injection, schedule: Q01DX005 (ip), vehicle: water, higher T/C = longer survival): 139 % of control | T/C (T/C endpoint: median survival time, dose: 16.0 mg/kg/injection, schedule: Q01DX009 (ip), vehicle: saline, evaluated on day 5, higher T/C = longer survival): 167 and 170 % of control | T/C (T/C endpoint: median survival time, dose: 16.0 mg/kg/injection, schedule: Q01DX009 (ip), vehicle: saline, evaluated on day 60, higher T/C = longer survival): 130 [8 of 10 alive], 168, 174, 186 % of control | survivor count (T/C endpoint: median survival time, dose: 24.0 mg/kg/injection, schedule: Q01DX005 (ip), vehicle: water, higher T/C = longer survival): 5 of 6 | survivor count (T/C endpoint: median survival time, dose: 24.0 mg/kg/injection, schedule: Q01DX009 (ip), vehicle: saline, higher T/C = longer survival): 6 of 6 | survivor count (T/C endpoint: median survival time, dose: 24.0 mg/kg/injection, schedule: Q01DX009 (ip), vehicle: water, higher T/C = longer survival): 10 of 10 | survivor count [1]: 10 of 10 (2×) | survivor count (T/C endpoint: median survival time, dose: 32.0 mg/kg/injection, schedule: Q01DX009 (ip), vehicle: water, higher T/C = longer survival): 10 of 10 and 9 of 9 | survivor count (T/C endpoint: median survival time, dose: 32.0 mg/kg/injection, schedule: Q01DX010 (ip), vehicle: water, higher T/C = longer survival): 10 of 10 | survivor count (T/C endpoint: median tumor weight (est.), dose: 32.0 mg/kg/injection, schedule: Q01DX009 (ip), vehicle: water, higher T/C = larger tumour): 1 of 10 on day 15 and 1 of 9 on day 14

NNC(=O)c1ccncc1
T/C [2]: 135 % of control | T/C [1]: 135 % of control | survivor count (T/C endpoint: median survival time, dose: 256.0 mg/kg/injection, schedule: Q01DX009 (ip), vehicle: saline, higher T/C = longer survival): 3 of 10

N=c1ccn2c(n1)OC1C(O)C(CO)OC12 (centres undefined)
survivor count (T/C endpoint: median survival time, dose: 300.0 mg/kg/injection, schedule: Q01DX009 (ip), vehicle: saline, higher T/C = longer survival): 10 of 10 | survivor count (T/C endpoint: median survival time, dose: 600.0 mg/kg/injection, schedule: Q01DX009 (ip), vehicle: saline, higher T/C = longer survival): 10 of 10

COc1cccc2c1C(=O)c1c(O)c3c(c(O)c1C2=O)CC(O)(C(C)=O)CC3OC1CC(N)C(O)C(C)O1 (centres undefined)
T/C (T/C endpoint: median survival time, dose: 2.9 mg/kg/injection, schedule: Q01DX009 (ip), vehicle: saline, higher T/C = longer survival): 125 % of control | survivor count (T/C endpoint: median survival time, dose: 46.8 mg/kg/injection, schedule: Q01DX009 (ip), vehicle: saline, higher T/C = longer survival): 10 of 10

CC[C@](O)(C(=O)O)c1cc2n(c(=O)c1CO)Cc1cc3ccccc3nc1-2
survivor count (T/C endpoint: median survival time, dose: 1.0 mg/kg/injection, schedule: Q01DX009 (ip), vehicle: saline, higher T/C = longer survival): 10 of 10 | survivor count (T/C endpoint: median survival time, dose: 4.0 mg/kg/injection, schedule: Q01DX009 (ip), vehicle: Klucel (hydroxypropylcellulose) (HPC), higher T/C = longer survival): 10 of 10 | survivor count (T/C endpoint: median survival time, dose: 4.0 mg/kg/injection, schedule: Q01DX009 (ip), vehicle: saline, higher T/C = longer survival): 10 of 10 | survivor count (T/C endpoint: median survival time, dose: 8.0 mg/kg/injection, schedule: Q01DX009 (ip), vehicle: Klucel (hydroxypropylcellulose) (HPC), higher T/C = longer survival): 10 of 10 | survivor count (T/C endpoint: median survival time, dose: 8.0 mg/kg/injection, schedule: Q01DX009 (ip), vehicle: saline, higher T/C = longer survival): 10 of 10 | survivor count [2]: 10 of 10 | survivor count [1]: 8 of 10

Cc1ncc([N+](=O)[O-])n1CCO
survivor count (T/C endpoint: median survival time, dose: 600.0 mg/kg/injection, schedule: Q01DX009 (ip), vehicle: Klucel (hydroxypropylcellulose) (HPC), higher T/C = longer survival): 10 of 10

COC(=O)C(N)CCCCNc1ccc2c(cc1=O)C(NC(C)=O)CCc1cc(OC)c(OC)c(OC)c1-2 (centres undefined)
T/C (T/C endpoint: median survival time, dose: 35.0 mg/kg/injection, schedule: Q01DX009 (ip), vehicle: saline, higher T/C = longer survival): 129 % of control

CC(C)CCC[C@@H](C)[C@H]1CC[C@H]2[C@@H]3CC=C4C[C@@H](O)CC[C@]4(C)[C@H]3CC[C@]12C
survivor count (T/C endpoint: median survival time, dose: 100.0 mg/kg/injection, schedule: Q01DX009 (ip), vehicle: other, higher T/C = longer survival): 10 of 10 and 12 of 12 | survivor count (T/C endpoint: median survival time, dose: 200.0 mg/kg/injection, schedule: Q01DX009 (ip), vehicle: other, higher T/C = longer survival): 12 of 12 | survivor count (T/C endpoint: median survival time, dose: 400.0 mg/kg/injection, schedule: Q01DX009 (ip), vehicle: other, higher T/C = longer survival): 12 of 12 | survivor count (T/C endpoint: median survival time, dose: 800.0 mg/kg/injection, schedule: Q01DX009 (ip), vehicle: other, higher T/C = longer survival): 12 of 12 | survivor count (T/C endpoint: median survival time, dose: 1600.0 mg/kg/injection, schedule: Q01DX009 (ip), vehicle: other, higher T/C = longer survival): 7 of 12

CCCCNCCCNCCCNC(=O)c1csc(-c2csc(CCNC(=O)C(NC(=O)C(C)C(O)C(C)NC(=O)C(NC(=O)c3nc(C(CC(N)=O)NCC(N)C(N)=O)nc(N)c3C)C(OC3OC(CO)C(O)C(O)C3OC3OC(CO)C(O)C(OC(N)=O)C3O)c3cnc[nH]3)C(C)O)n2)n1 (centres undefined)
T/C (T/C endpoint: median survival time, dose: 1.25 mg/kg/injection, schedule: Q01DX009 (ip), vehicle: water, higher T/C = longer survival): 130 % of control | T/C (T/C endpoint: median survival time, dose: 2.5 mg/kg/injection, schedule: Q01DX009 (ip), vehicle: water, higher T/C = longer survival): 127 % of control | T/C (T/C endpoint: median survival time, dose: 5.0 mg/kg/injection, schedule: Q01DX009 (ip), vehicle: water, higher T/C = longer survival): 137 % of control

CC1(C)N=C(N)N=C(N)N1c1ccc(CCC(=O)Nc2ccc(S(=O)(=O)F)cc2)c(Cl)c1
T/C (T/C endpoint: median survival time, dose: 50.0 mg/kg/injection, schedule: Q01DX009 (ip), vehicle: saline, higher T/C = longer survival): 129 % of control

O=C(NP(=O)(N1CC1)N1CC1)c1cc(I)ccc1I
survivor count (T/C endpoint: median survival time, dose: 1.0 mg/kg/injection, schedule: Q01DX001 (oral), vehicle: saline with Tween-80, higher T/C = longer survival): 10 of 10 | survivor count (T/C endpoint: median survival time, dose: 2.0 mg/kg/injection, schedule: Q01DX001 (oral), vehicle: saline with Tween-80, higher T/C = longer survival): 10 of 10 | survivor count (T/C endpoint: median survival time, dose: 2.0 mg/kg/injection, schedule: Q02DX009 (ip), vehicle: saline with Tween-80, higher T/C = longer survival): 9 of 10 | T/C (T/C endpoint: median survival time, dose: 2.0 mg/kg/injection, schedule: Q02DX009 (ip), vehicle: saline, higher T/C = longer survival): 147 % of control | T/C (T/C endpoint: median survival time, dose: 32.0 mg/kg/injection, schedule: Q02DX009 (ip), vehicle: saline with Tween-80, higher T/C = longer survival): 135 % of control | survivor count (T/C endpoint: median survival time, dose: 64.0 mg/kg/injection, schedule: Q02DX009 (ip), vehicle: saline with Tween-80, higher T/C = longer survival): 10 of 10 | survivor count (T/C endpoint: median survival time, dose: 64.0 mg/kg/injection, schedule: Q02DX009 (ip), vehicle: saline, higher T/C = longer survival): 10 of 10 | survivor count (T/C endpoint: median survival time, dose: 128.0 mg/kg/injection, schedule: Q01DX001 (oral), vehicle: saline with Tween-80, higher T/C = longer survival): 10 of 10 | survivor count (T/C endpoint: median survival time, dose: 128.0 mg/kg/injection, schedule: Q02DX009 (ip), vehicle: saline with Tween-80, higher T/C = longer survival): 10 of 10 | survivor count (T/C endpoint: median survival time, dose: 128.0 mg/kg/injection, schedule: Q02DX009 (ip), vehicle: saline, higher T/C = longer survival): 10 of 10 | T/C (T/C endpoint: median survival time, dose: 256.0 mg/kg/injection, schedule: Q01DX001 (oral), vehicle: saline with Tween-80, higher T/C = longer survival): 126 % of control [9 of 10 alive] | survivor count (T/C endpoint: median survival time, dose: 256.0 mg/kg/injection, schedule: Q02DX009 (ip), vehicle: saline with Tween-80, higher T/C = longer survival): 9 of 10 | survivor count (T/C endpoint: median survival time, dose: 256.0 mg/kg/injection, schedule: Q02DX009 (ip), vehicle: saline, higher T/C = longer survival): 8 of 10 | survivor count (T/C endpoint: median survival time, dose: 512.0 mg/kg/injection, schedule: Q02DX009 (ip), vehicle: saline with Tween-80, higher T/C = longer survival): 9 of 10 | survivor count (T/C endpoint: median survival time, dose: 512.0 mg/kg/injection, schedule: Q02DX009 (ip), vehicle: saline, higher T/C = longer survival): 9 of 10
